These are yes or no findings as the source states them, for the method shown. Some binding calls cover weakened binding; strength is not graded here.
Experiments:
[1] = molecular target: human CD22 (hCD22) (human) (UniProt P20273); assay: hybridoma screening on mouse L cells transfected with CD22 cDNA
[2] = molecular target: human CD22 (hCD22) (human) (UniProt P20273); assay: flow cytometry on Raji and Ramos cells

Amino acid sequences for entries named in this document (tags omitted). A change or cut given only in a name is not applied to a line headed by its entry.
UniProt P20273: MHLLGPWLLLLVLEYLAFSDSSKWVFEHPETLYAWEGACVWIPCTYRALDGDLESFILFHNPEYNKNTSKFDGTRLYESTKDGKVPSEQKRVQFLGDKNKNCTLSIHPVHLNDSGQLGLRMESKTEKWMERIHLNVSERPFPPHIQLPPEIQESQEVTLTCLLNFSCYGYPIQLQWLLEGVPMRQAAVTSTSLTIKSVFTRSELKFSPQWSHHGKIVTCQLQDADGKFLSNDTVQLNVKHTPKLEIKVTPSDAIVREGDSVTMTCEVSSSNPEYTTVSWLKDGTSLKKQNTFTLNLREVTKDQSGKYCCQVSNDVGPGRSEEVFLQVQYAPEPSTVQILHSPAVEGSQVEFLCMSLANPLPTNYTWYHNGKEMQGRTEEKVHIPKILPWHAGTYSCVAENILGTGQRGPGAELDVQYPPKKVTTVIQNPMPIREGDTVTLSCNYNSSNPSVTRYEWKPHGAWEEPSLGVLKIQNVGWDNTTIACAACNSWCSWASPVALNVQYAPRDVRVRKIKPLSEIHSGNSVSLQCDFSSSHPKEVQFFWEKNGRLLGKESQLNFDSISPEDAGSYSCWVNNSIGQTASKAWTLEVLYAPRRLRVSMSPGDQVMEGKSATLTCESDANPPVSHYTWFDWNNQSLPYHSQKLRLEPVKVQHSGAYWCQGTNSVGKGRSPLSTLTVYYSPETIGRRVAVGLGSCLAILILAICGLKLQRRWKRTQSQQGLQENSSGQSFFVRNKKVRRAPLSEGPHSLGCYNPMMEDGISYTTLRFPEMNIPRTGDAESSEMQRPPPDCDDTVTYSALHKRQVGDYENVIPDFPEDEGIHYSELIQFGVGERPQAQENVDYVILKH

- binding [1]: binds
- binding [2]: binds
B1: anti-CD22 monoclonal antibody HB22-7 (antibody, V domains shown)
VH: EVQLQESGPGLVAPSQSLSITCTVSGFSLSDYGVNWVRQIPGKGLEWLGIIWGDGRTDYNSALKSRLNISKDNSKSQVFLKMNSLKADDTARYYCARAPGNRAMEYWGQGTSVTVSS
VL: SIVMTQTPKFLLVSAGDRITLTCKASQSVTNDVAWYQQKPGQSPKLLIYYASNRYTGVPDRFTGSGYGTDFTFTISTVQAEDLAVYFCQQDYRSPWTFGGGTKLEIKR
